{"source": "patent US8455421B2", "about": "“Compositions and methods for the removal of chewing gum residues from substrates” (Expelliere Int Ltd, priority 2008, dated 2013)", "key": {"[1]": {"assay": "Chewing gum film treated with laccase, [emim][docusate] and mediator; gel permeation chromatography", "settings": "laccase LTV 0.4 mg/mL, 20 wt % [emim][docusate], citric acid buffer pH 4.5, mediator 5 mM; for Residue fragments, molecular weight as percentage of initial molecular weight: after 72 h, GPC"}, "[2]": {"assay": "Chewing gum residue on concrete slab treated with removal composition and oxidising reagents", "settings": "with oxygen source (hydrogen peroxide and/or sodium perborate), about 10 minutes contact"}}, "note": "Where “and” joins values, the source holds several entries; their conditions need not be identical. Equal entries are not always repeated.", "data": [{"compound": "OCc1ccc(O)cc1", "note": "[p-hydroxybenzyl alcohol]", "values": [{"measurement": "Residue fragments, molecular weight as percentage of initial molecular weight", "setting": "[1]", "value": "60% and 45% and 39% and 30%"}]}, {"compound": "Oc1ccccc1-c1ccccc1", "note": "[2-hydroxybiphenyl]", "values": [{"measurement": "Residue fragments, molecular weight as percentage of initial molecular weight", "setting": "[1]", "value": "54% and 45%"}]}, {"compound": "CC1(C)CCCC(C)(C)N1[O]", "note": "[TEMPO]", "values": [{"measurement": "Observations after 72 h", "setting": "[1]", "value": "Chewing gum fully dissolved in water, no residue to"}]}, {"compound": "choline diisooctylsulfosuccinate", "values": [{"measurement": "Removal of chewing gum residue after oxidative treatment", "setting": "[2]", "value": "easily removed from the surface of the concrete slab using a wire brush, or by rinsing with water"}]}, {"compound": "CCn1c(=NN=c2sc3cc(S(=O)(=O)O)ccc3n2CC)sc2cc(S(=O)(=O)O)ccc21", "note": "[ABTS]", "values": [{"measurement": "Observations after 72 h", "setting": "[1]", "value": "Chewing gum fully dissolved in water, no residue to"}]}, {"compound": "c1ccc2c(c1)Nc1ccccc1S2", "note": "[10-H-phenothiazine]", "values": [{"measurement": "Observations after 72 h", "setting": "[1]", "value": "Chewing gum fully detached from glass surface."}]}]}
